Among the data in paper doi:10.1101/2025.11.26.690680 are binding values, retold here.

The chains behind the UniProt entries cited, without tags or fusion partners. Where a name states a change or a piece, a line headed by the entry shows the natural chain unless it says otherwise.
UniProt Q9H6L5: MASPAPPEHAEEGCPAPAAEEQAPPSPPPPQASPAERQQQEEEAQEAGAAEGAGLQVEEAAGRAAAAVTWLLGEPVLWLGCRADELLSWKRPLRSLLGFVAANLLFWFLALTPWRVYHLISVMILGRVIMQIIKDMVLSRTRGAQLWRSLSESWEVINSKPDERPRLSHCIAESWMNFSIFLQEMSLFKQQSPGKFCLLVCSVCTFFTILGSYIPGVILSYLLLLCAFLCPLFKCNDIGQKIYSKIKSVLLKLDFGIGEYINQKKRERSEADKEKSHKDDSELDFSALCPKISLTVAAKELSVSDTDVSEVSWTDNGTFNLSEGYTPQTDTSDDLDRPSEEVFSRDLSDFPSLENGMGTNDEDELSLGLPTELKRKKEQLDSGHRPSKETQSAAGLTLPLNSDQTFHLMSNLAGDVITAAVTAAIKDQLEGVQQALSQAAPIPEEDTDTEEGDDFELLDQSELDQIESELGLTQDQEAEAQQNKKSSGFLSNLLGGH
UniProt O14983: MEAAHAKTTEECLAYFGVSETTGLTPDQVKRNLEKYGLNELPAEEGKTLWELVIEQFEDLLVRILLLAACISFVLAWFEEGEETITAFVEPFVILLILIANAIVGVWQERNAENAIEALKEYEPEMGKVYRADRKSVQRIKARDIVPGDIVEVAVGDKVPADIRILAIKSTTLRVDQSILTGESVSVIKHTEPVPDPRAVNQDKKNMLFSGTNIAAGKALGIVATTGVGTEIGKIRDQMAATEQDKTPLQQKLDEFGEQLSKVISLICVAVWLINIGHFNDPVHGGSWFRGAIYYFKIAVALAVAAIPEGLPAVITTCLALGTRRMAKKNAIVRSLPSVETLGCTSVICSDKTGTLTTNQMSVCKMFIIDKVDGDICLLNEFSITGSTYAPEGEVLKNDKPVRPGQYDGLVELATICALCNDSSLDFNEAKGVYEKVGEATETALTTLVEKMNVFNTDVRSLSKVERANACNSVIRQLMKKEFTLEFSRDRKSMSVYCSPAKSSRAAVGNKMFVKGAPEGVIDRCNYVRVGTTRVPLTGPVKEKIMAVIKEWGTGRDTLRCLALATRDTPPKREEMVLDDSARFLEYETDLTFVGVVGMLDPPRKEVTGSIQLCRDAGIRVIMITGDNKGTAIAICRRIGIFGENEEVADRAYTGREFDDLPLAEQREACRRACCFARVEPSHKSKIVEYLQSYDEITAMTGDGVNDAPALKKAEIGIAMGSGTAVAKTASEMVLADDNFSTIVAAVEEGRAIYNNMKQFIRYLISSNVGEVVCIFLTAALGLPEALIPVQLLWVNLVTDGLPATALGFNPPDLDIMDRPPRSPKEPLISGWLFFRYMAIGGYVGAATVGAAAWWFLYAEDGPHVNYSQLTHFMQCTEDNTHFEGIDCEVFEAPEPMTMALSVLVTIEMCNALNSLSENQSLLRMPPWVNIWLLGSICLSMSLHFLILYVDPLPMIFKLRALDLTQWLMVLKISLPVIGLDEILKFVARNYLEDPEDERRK

The target in this experiment is FAM134B (endogenous, human iPS cell-derived myocytes) (human (endogenous in hiPSC-MCs)) (UniProt Q9H6L5). Briefly: co-IP.

Results are given in words; binding and its absence hold for the method and conditions named. Binding seen in cells or lysates may run through a third protein. Binding can be weak; no strength is given.

On to “sarcoplasmic/endoplasmic reticulum calcium ATPase 1 (SERCA1), endogenous, human iPS cell-derived myocytes (from UniProt O14983 1-1001)”, for which the binding result was “binds”.
